Reference: PubChem BioAssay AID1259308 (NCATS, 2017)
Here is an unselected part of about 59,000 deposited reagents. About 1,510 of all reagents (2.6%) were called active. 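Calls use total luciferase alone and ignore viability, so some active siRNAs may act by altering cell number.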 Entries without a mark were called inactive. The numbers tell different reagents against one gene apart. Further read-outs or replicates are left out here.

Screen: 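Candidate targets for better recombinant protein yield in mammalian cells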 (primary screen)
System: human HEK293 embryonic kidney cells stably expressing firefly luciferase (HEK-CMV-Luc2-Hygro)
Reagent: single siRNA against human genes, 0.8 pmol siRNA per well
Duration: 72 h
Measurement: 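Reporter luminescence and viable-cell signal on separate replicate plates, given as percent of non-targeting control and median/MAD z-scores, plus per-cell luciferase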
Scale: total luciferase, z-score: higher = more reporter protein produced
Call rule: 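An siRNA counts as active if its total luciferase robust z-score exceeds 3; genes with two or more such siRNAs out of three were retested with fresh siRNAs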
Meaning of the calls: active = raised luciferase; inactive = no rise

APOL3 #1 scored total luciferase, z-score 1.21. For APOL3 #2, the values are total luciferase, z-score -1.49. With knock-down of APOL3 #3, the screen gave total luciferase, z-score -0.533. NUDT18 #1 showed total luciferase, z-score 0.388. With knock-down of NUDT18 #2, the record shows total luciferase, z-score 0.726. NUDT18 #3 scored total luciferase, z-score 1.55.

Against RNF152 #1, the values are total luciferase, z-score -0.649. After knock-down of RNF152 #2, the record shows total luciferase, z-score -0.394. RNF152 #3 scored total luciferase, z-score -0.77. KMO #1 scored total luciferase, z-score 3.91 (active). With knock-down of KMO #2, the record shows total luciferase, z-score -0.497. Silencing of KMO #3 resulted in: total luciferase, z-score -0.179.

RPS29 #1 gave total luciferase, z-score -2.64. Silencing of RPS29 #2 came out at: total luciferase, z-score -2.28. RPS29 #3 gave total luciferase, z-score -2.62. Against SNRPF #1, the entry reads total luciferase, z-score 3.7 (active). Against SNRPF #2, the entry reads total luciferase, z-score 3.39 (active). For SNRPF #3, the values are total luciferase, z-score 0.665.

For ART4 #1, the values are total luciferase, z-score -0.0755. After knock-down of ART4 #2, the record shows total luciferase, z-score -0.868. For ART4 #3, the entry reads total luciferase, z-score -0.796. Silencing of NYNRIN #1 resulted in: total luciferase, z-score -1.23. Against NYNRIN #2 the deposit lists total luciferase, z-score -0.013. Against NYNRIN #3 the deposit lists total luciferase, z-score -0.536.

WDR89 #1 scored total luciferase, z-score -1.41. WDR89 #2 showed total luciferase, z-score 2.57. Knock-down of WDR89 #3 came out at: total luciferase, z-score 0.929. With knock-down of FAM185A #1, the record shows total luciferase, z-score 0.134. With knock-down of FAM185A #2 the results were total luciferase, z-score 0.173. After knock-down of FAM185A #3, the record shows total luciferase, z-score -0.0517.

NSMF #1 gave total luciferase, z-score 0.0954. With knock-down of NSMF #2, the screen gave total luciferase, z-score -0.889. NSMF #3 showed total luciferase, z-score -0.778. With knock-down of PCDHA1 #1 the results were total luciferase, z-score -0.264. Knock-down of PCDHA1 #2 resulted in: total luciferase, z-score -0.675. Depletion of PCDHA1 #3 came out at: total luciferase, z-score 0.474.

After knock-down of UGT1A5 #1 the results were total luciferase, z-score -0.899. After knock-down of UGT1A5 #2, the screen gave total luciferase, z-score 0.139. Knock-down of UGT1A5 #3 gave: total luciferase, z-score -0.744. With knock-down of VPS4B #1, the record shows total luciferase, z-score 0.423. Against VPS4B #2, the values are total luciferase, z-score -0.745. Depletion of VPS4B #3 resulted in: total luciferase, z-score -1.3.

Looked up above.
WDR89 #3, total luciferase, z-score → 0.929
Entry for RPS29 #2 under “total luciferase, z-score”: -2.28
Under “total luciferase, z-score”, VPS4B #2 shows -0.745
Entry for ART4 #1 in “total luciferase, z-score”: -0.0755
For “total luciferase, z-score”, VPS4B #1 shows 0.423
Under “total luciferase, z-score”, NSMF #1 is entered as 0.0954
